In patent publication US20240317732A1, “A NEW MOLECULAR SCAFFOLD FOR TARGETING HRPN13” (THE UNITED STATES OF AMERICA AS REPRESENTED BY THE …, priority 2021, published 2024):

Experiment: LC-MS reactivity with reduced L-glutathione
Conditions: 40 μM compound, 2 mM reduced L-glutathione, 2 hours, 4° C.

Cl.N[C@@H](Cc1ccccc1)C(=O)N1C/C(=C/c2ccc(Cl)c(Cl)c2)C(=O)/C(=C\c2ccc(Cl)c(Cl)c2)C1 [RA190]
abundance of glutathione product with one molecule ligated: 14% | abundance of glutathione product with two molecules ligated: 30%
